Taken from: PubChem BioAssay AID1053208 (Peter MacCallum Cancer Centre, 2014)

Assay: 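Genes whose silencing cuts survival of bone tumour cells only with doxorubicin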 (primary screen)
Cells: mouse osteosarcoma cells, early-passage culture from an engineered mouse model of fibroblastic bone tumour
Reagents: siRNA pool against mouse genes, 40 nM
Timing: about 120 h (48 h before drug, then 72 h with drug)
Conditions: doxorubicin 100 nM for 72 h, roughly 30-40% inhibitory dose
Measured: 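Viability read as ATP luminescence after 72 h of 100 nM doxorubicin or none, duplicate wells averaged, scaled to non-targeting siRNA, then expressed as robust z-scores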
Scale: viability z-score with doxorubicin: higher = more viable cells under doxorubicin; viability z-score without drug: higher = more viable cells with knock-down alone
Active means: 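a pool counts as active when its viability z-score with doxorubicin is -2 or below and its z-score without drug lies between -2 and 2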
Shown is an unselected part of about 17,000 deposited reagents. 788 of all reagents (4.7%) count as active. 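Calls rest on z-score classes alone; an extra cut-off of viability at most 70% of control was not applied to them.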 A reagent listed more than once was tested more than once; the source does not tell the runs apart. Not all columns of the deposit are shown.

no.	gene knocked down	combined z-score class	viability z-score with doxorubicin	viability z-score without drug	outcome
1	Phospho1 (GeneID 237928)	no change with or without drug	1.57	0.84	inactive
2	Acad10 (GeneID 71985)	no change with or without drug	-0.79	1.01	inactive
3	Acad10 (GeneID 71985)	no change with or without drug	0.22	-1.35	inactive
4	SCN9A	no change with or without drug	0	-0.51	inactive
5	Rgs17 (GeneID 56533)	no change with or without drug	-0.45	0.17	inactive
6	Mmp11 (GeneID 17385)	no change with or without drug	-0.45	-0.17	inactive
7	Or5a1 (GeneID 258677)	no change with or without drug	-0.11	0.51	inactive
8	Smad9 (GeneID 55994)	no change with or without drug	0.45	-0.17	inactive
9	Tnrc18 (GeneID 231861)	no change with or without drug	0.34	0.84	inactive
10	Mtfr2 (GeneID 71804)	low cell count without drug only	0.45	-2.36	inactive
11	Wee1 (GeneID 22390)	low cell count with and without drug	-5.85	-2.53	inactive
12	Zc3h7a (GeneID 106205)	no change with or without drug	-0.22	1.18	inactive
13	Parp1 (GeneID 11545)	no change with or without drug	-0.67	0.17	inactive
14	Erfe (GeneID 227358)	no change with or without drug	-1.8	-0.51	inactive
15	Hmgcs1 (GeneID 208715)	low cell count with doxorubicin only	-2.25	-1.18	active
16	Large2 (GeneID 228366)	no change with or without drug	0.34	-0.17	inactive
17	Ebi3 (GeneID 50498)	no change with or without drug	0.22	1.18	inactive
18	Ralgps2 (GeneID 78255)	no change with or without drug	1.35	0.51	inactive
19	Igsf1 (GeneID 209268)	no change with or without drug	-1.8	0	inactive
20	Stfa2l1 (GeneID 268885)	no change with or without drug	0.45	-0.17	inactive
21	Irx5 (GeneID 54352)	no change with or without drug	-0.9	1.52	inactive
22	Fam151a (GeneID 230579)	high cell count without drug only	1.57	2.7	inactive
23	Cacnb1 (GeneID 12295)	no change with or without drug	-1.12	-0.51	inactive
24	B4galt5 (GeneID 56336)	no change with or without drug	0.56	1.18	inactive
25	Polr2h (GeneID 245841)	low cell count with and without drug	-6.63	-2.19	inactive
26	Ica1l (GeneID 70375)	no change with or without drug	0.22	0.17	inactive
27	Btnl10 (GeneID 192194)	no change with or without drug	0.79	-0.17	inactive
28	Zfp706 (GeneID 68036)	no change with or without drug	0.34	-0.17	inactive
29	Or8b43 (GeneID 258798)	high cell count without drug only	0.45	2.87	inactive
30	Kcnn4 (GeneID 16534)	no change with or without drug	-1.91	-1.35	inactive
31	Rapgef5 (GeneID 217944)	no change with or without drug	0.79	-0.17	inactive
32	Uggt2 (GeneID 66435)	no change with or without drug	-1.24	-0.51	inactive
33	Or5an9 (GeneID 258409)	no change with or without drug	-1.12	0.17	inactive
34	Ythdc1 (GeneID 231386)	low cell count with doxorubicin only	-3.15	-0.17	active

Targets listed so far whose target name begins with I or i (3):
gene knocked down	combined z-score class	viability z-score with doxorubicin	viability z-score without drug	outcome
Igsf1 (GeneID 209268)	no change with or without drug	-1.8	0	inactive
Irx5 (GeneID 54352)	no change with or without drug	-0.9	1.52	inactive
Ica1l (GeneID 70375)	no change with or without drug	0.22	0.17	inactive
